Results on one compound are retold here after paper PMC7940615 (Scientific Reports, 2021).

This data set is described as follows: in vitro. As to conditions: African green monkey.

As to `CCC(CC)COC(=O)[C@H](C)N[P@](=O)(OC[C@H]1O[C@@](C#N)(c2ccc3c(N)ncnn23)[C@H](O)[C@@H]1O)Oc1ccccc1` [Remdesivir, remdesivir], the CC50 turned out to be 17.6 µM.
